PubChem BioAssay AID1508588 | Peter MacCallum Cancer Centre – 2020
The whole screen tested about 18,000 reagents; this is a random part of them. 790 of all reagents (4.4%) were called active. 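Calls rest on a combination of fold-change classes in drug and vehicle arms, not all shown here.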 A number with no mark means an inactive call.

Screen: 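Knock-downs boosting vemurafenib effects on melanoma cell growth or lactate release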 (primary screen)
Cell system: human WM266.4 melanoma cells (BRAF V600 mutant)
Reagent: siRNA pool against human genes, 40 nM
Time to read-out: 96 h from transfection to read-out
Conditions: vemurafenib 300 nM (about IC25), added 48 h after transfection, for 48 h; comparison arm got DMSO vehicle only
Detection: 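Ratios to non-targeting siRNA for cell gain, counted as DAPI nuclei after minus before drug and averaged over two replicates, and for absorbance-read medium lactate per cell; both binned into fold-change classes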
Direction: cell gain with vemurafenib: higher = more cell gain than with non-targeting siRNA; lactate per cell with vemurafenib: higher = more lactate made per cell
Call rule: 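a knock-down counts as enhancing when its fold-change classes with vehicle and with vemurafenib, taken together, show a stronger drug effect on cell gain or lactate per cell; exact class pairs not stated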
Calls: active = enhances vemurafenib effect; inactive = no enhancement seen

gene knocked down	cell gain with vemurafenib	lactate per cell with vemurafenib
ZNF554	0.75	0.79
TMEM45B	0.44	0.8
DZANK1	0.38	1.5
GPR107	1.03	0.98
TMEM220	0.18	2.06
KRT27	0.86	0.82
SELPLG	0.53	1.69
OR10K2	0.26	1.08
CUL4A	0.8	0.72
ARID1A	0.66	0.62
PIGG	0.79	0.8
COL24A1	0.58	0.78
SEC23B	0.62	1.1
DOCK8-AS1	0.28	1.7
RANBP1	0.74	0.8
NUF2	0.01	1.33
PDE6A	0.33	0.64
LILRB4	0.47	0.79
RAB2A	1	0.5
REN	0.92	0.99
PLIN2	0.8	0.71
GASK1B	0.86	0.62
OR14J1	0.53	1.27
C19orf44	0.37	1.32
STRN3	0.36	1.18
ANKEF1	0.3	1.04
GPALPP1	0.55	0.72
TRIM44	0.75	0.93
UTP4	0.97	0.78
STAU2	0.71	0.86
ZNF189	0.56	1.31
GPR22	0.94	0.42
CDX4	0.92	0.76
PIK3R2	0.26	1.35
H2BC17	-0.05	2.74
OR5AK2	0.9	0.88
NQO2	0.62	0.57
KRTAP10-2	0.7	1
AXIN1	0.78	1.26
ARHGEF16	0.47	1.31
POU3F1	0.79	0.85
TTC31	0.39	0.6
WNT2B	0.74	1.96
ZFAND2B	0.15	2.5
TFDP3	0.99	1.02
PRXL2C	0.2 (active)	0.47
FLOT2	0.5	0.92
MMUT	0.91	0.48
STK11	0.2	1.22
PHF12	1.05	0.7
NDUFV1-DT	0.67	1.68
GRIN2C	0.44	1.07
RBM19	0.39	0.7
ZNF540	0.92	0.66
OCIAD1	1.07	0.64
EBF3	0.67	0.94
CBLN1	0.49	0.68

9 of these entries in another layout:
gene knocked down,cell gain with vemurafenib,lactate per cell with vemurafenib
STK11,0.2,1.22
PHF12,1.05,0.7
NDUFV1-DT,0.67,1.68
GRIN2C,0.44,1.07
RBM19,0.39,0.7
ZNF540,0.92,0.66
OCIAD1,1.07,0.64
EBF3,0.67,0.94
CBLN1,0.49,0.68
